PubChem BioAssay AID1159584, Peter MacCallum Cancer Centre – 2016

Assay: 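Genes that CDH1-null MCF10A cells selectively depend on to survive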 (primary screen)
Cell system: human MCF10A breast epithelial cells, parental and CDH1-null
Reagent: siRNA against human genes
Measurement: 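Cell viability by CellTiter-Glo ATP luminescence, each line scaled to the mean of mock wells across plates, then CDH1-null over parental ratio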
Direction: CDH1-null / parental viability ratio: higher = CDH1-null cells survive relatively better than parental; CDH1-null viability vs mock: higher = more viable CDH1-null cells
In all, the deposit lists about 18,000 reagents; this is an unselected part. Further read-outs or replicates are left out here. Not given: the amount of reagent, the time to read-out.

| Target gene | PubChem SID | CDH1-null / parental viability ratio | CDH1-null viability vs mock (fraction of mock) |
| --- | --- | --- | --- |
| IQSEC3 (GeneID 440073) | SID135624885 | 1.09 | 0.87 |
| GALNTL6 (GeneID 442117) | SID135625355 | 1.06 | 0.84 |
| SUPT6H (GeneID 6830) | SID152148354 | 1.17 | 0.56 |
| ZNF518A (GeneID 9849) | SID135625189 | 0.82 | 0.56 |
| CLEC18A (GeneID 348174) | SID134322620 | 0.59 | 0.62 |
| UBAP2L (GeneID 9898) | SID152153195 | 1.23 | 0.64 |
| PRSS2 (GeneID 5645) | SID134311435 | 0.88 | 0.76 |
| RFLNA (GeneID 144347) | SID135623582 | 1.21 | 0.64 |
| SLC9A3 (GeneID 6550) | SID134312670 | 1.29 | 1.08 |
| FAAP24 (GeneID 91442) | SID152148703 | 1.1 | 0.8 |
| YOD1 (GeneID 55432) | SID152149531 | 1.04 | 0.5 |
| PSMB3 (GeneID 5691) | SID134321422 | 1.55 | 0.34 |
| ZFHX4 (GeneID 79776) | SID135623612 | 0.85 | 0.71 |
| TRIM28 (GeneID 10155) | SID134310713 | 0.62 | 0.48 |
| ZMYM6 (GeneID 9204) | SID152148722 | 1.04 | 0.7 |
| MICALL2 (GeneID 79778) | SID152147720 | 0.94 | 0.92 |
| KLRD1 (GeneID 3824) | SID134315652 | 0.98 | 0.55 |
| NYNRIN (GeneID 57523) | SID152150299 | 1.02 | 0.5 |
| KRI1 (GeneID 65095) | SID152150241 | 1.27 | 1.02 |
| PGR (GeneID 5241) | SID135620677 | 0.81 | 0.56 |
| EPS15 (GeneID 2060) | SID152151135 | 1.14 | 0.66 |
| CSRNP2 (GeneID 81566) | SID134318772 | 1.04 | 1.08 |
| CHRNE (GeneID 1145) | SID135621150 | 1.26 | 0.87 |
| MATCAP1 (GeneID 653319) | SID135625683 | 1.26 | 0.88 |
| OTULINL (GeneID 54491) | SID134324211 | 0.89 | 0.76 |
| ZNF660 (GeneID 285349) | SID134322009 | 1.14 | 0.89 |
| CFAP74 (GeneID 85452) | SID135624500 | 1.08 | 0.91 |
| CFAP74 (GeneID 85452) | SID152155933 | 0.94 | 0.91 |
| CD28 (GeneID 940) | SID135622383 | 1.03 | 0.68 |
| UNC13A (GeneID 23025) | SID152150521 | 1.12 | 0.85 |
| SIRT5 (GeneID 23408) | SID135622530 | 1.11 | 0.82 |

Look-ups from the list.
For “CDH1-null viability vs mock (fraction of mock)”, RFLNA (GeneID 144347) [SID135623582] reads 0.64
Entry of NYNRIN (GeneID 57523) [SID152150299] in “CDH1-null / parental viability ratio”: 1.02
Value of SLC9A3 (GeneID 6550) [SID134312670] under “CDH1-null / parental viability ratio”: 1.29
CSRNP2 (GeneID 81566) [SID134318772], CDH1-null / parental viability ratio → 1.04
OTULINL (GeneID 54491) [SID134324211], CDH1-null viability vs mock (fraction of mock) → 0.76
Value for KLRD1 (GeneID 3824) [SID134315652] in “CDH1-null viability vs mock (fraction of mock)”: 0.55

The results go on.
| Target gene | PubChem SID | CDH1-null / parental viability ratio | CDH1-null viability vs mock (fraction of mock) |
| --- | --- | --- | --- |
| SH3BGRL2 (GeneID 83699) | SID152150594 | 1.15 | 1.12 |
| URB2 (GeneID 9816) | SID152154191 | 0.96 | 0.92 |
| STX1A (GeneID 6804) | SID152152009 | 0.96 | 0.82 |
| TPM3 (GeneID 7170) | SID152152018 | 0.93 | 1.18 |
| NKRF (GeneID 55922) | SID135625032 | 0.9 | 0.9 |
| CDH13 (GeneID 1012) | SID152149731 | 1.35 | 1.13 |
| GCC1 (GeneID 79571) | SID135623340 | 0.94 | 0.88 |
| USP54 (GeneID 159195) | SID135623224 | 0.93 | 0.56 |
| MFRP (GeneID 83552) | SID134315236 | 0.89 | 0.71 |
| HSPB1 (GeneID 3315) | SID134310839 | 1.02 | 0.51 |
| ARHGEF17 (GeneID 9828) | SID134314467 | 0.89 | 0.72 |
| SMG1 (GeneID 23049) | SID152155844 | 0.74 | 0.68 |
| SHANK3 (GeneID 85358) | SID152151763 | 0.86 | 0.74 |
| GATA4 (GeneID 2626) | SID134313127 | 1.35 | 0.96 |
| NFYB (GeneID 4801) | SID134314658 | 0.94 | 0.83 |
| FDX1 (GeneID 2230) | SID134322997 | 0.91 | 0.97 |
| BID (GeneID 637) | SID135620819 | 1.09 | 0.98 |
| FAM228A (GeneID 653140) | SID135625531 | 1.05 | 0.45 |
| TNC (GeneID 3371) | SID152153221 | 0.96 | 0.71 |
| P2RX7 (GeneID 5027) | SID134310058 | 1.33 | 1.04 |
| HSPE1 (GeneID 3336) | SID134323425 | 1.05 | 0.92 |
| TMEM86B (GeneID 255043) | SID134322640 | 0.66 | 0.69 |
| TGFBRAP1 (GeneID 9392) | SID152148865 | 0.94 | 0.9 |
| ZNF793 (GeneID 390927) | SID135624956 | 0.85 | 0.7 |
| IFIT3 (GeneID 3437) | SID152156044 | 0.91 | 0.84 |
| PTAFR (GeneID 5724) | SID134311140 | 1.45 | 0.9 |
| VMO1 (GeneID 284013) | SID134322802 | 1.19 | 1.12 |
| TRAPPC11 (GeneID 60684) | SID134320761 | 0.69 | 0.5 |
| WNT2B (GeneID 7482) | SID135621930 | 1.08 | 1.15 |
| GAREM1 (GeneID 64762) | SID134317950 | 1.2 | 0.53 |
| ZNF318 (GeneID 24149) | SID152156400 | 1.35 | 0.88 |
| SYNGR2 (GeneID 9144) | SID152155084 | 1.06 | 0.54 |
| STPG1 (GeneID 90529) | SID152148342 | 0.83 | 0.6 |
| CLSPN (GeneID 63967) | SID134310856 | 1.24 | 0.68 |
| ZNF577 (GeneID 84765) | SID134319035 | 1.14 | 0.8 |
| GIPR (GeneID 2696) | SID134310957 | 1.27 | 0.98 |
| SMARCC2 (GeneID 6601) | SID134313192 | 0.98 | 0.96 |
| ZC3H7B (GeneID 23264) | SID134321361 | 0.8 | 0.7 |
| LSM4 (GeneID 25804) | SID134320990 | 1.73 | 0.64 |
| LCE3E (GeneID 353145) | SID135623661 | 0.94 | 0.76 |
| KDM2A (GeneID 22992) | SID134316729 | 1.03 | 0.73 |
| ORAI2 (GeneID 80228) | SID135622861 | 1.03 | 0.64 |
| ZNF776 (GeneID 284309) | SID134322088 | 1 | 0.94 |
| RHOU (GeneID 58480) | SID134314579 | 1.09 | 1 |
| FHOD1 (GeneID 29109) | SID152153273 | 1.08 | 0.53 |
| CAPZA1 (GeneID 829) | SID152150259 | 1.06 | 0.83 |
| OR51V1 (GeneID 283111) | SID152149696 | 1.09 | 0.85 |
| SYN1 (GeneID 6853) | SID152147149 | 1.22 | 1 |
| DSP (GeneID 1832) | SID135623838 | 1.06 | 0.89 |
| NUP160 (GeneID 23279) | SID152150399 | 1.11 | 0.4 |
| PLA2G3 (GeneID 50487) | SID152150077 | 1.09 | 0.95 |
| DPYSL2 (GeneID 1808) | SID152151218 | 1.16 | 0.87 |
| WDR49 (GeneID 151790) | SID134322321 | 0.89 | 0.55 |
| SLC22A10 (GeneID 387775) | SID152152533 | 0.94 | 0.78 |
| IKBKE (GeneID 9641) | SID56478721 | 0.96 | 0.77 |
| OR56A4 (GeneID 120793) | SID152149264 | 1.11 | 0.93 |
